Results published in patent US20180134781A1.
No constants are given. Whether binding was seen depends on the method and setting. Some binding calls cover weakened binding; strength is not graded here.

T1: series of linear peptides which contain common sequence 150…159 (human)
T1 sequence (peptide): QRQRREMVAQ

B1: H4H15335P (antibody, human IgG4, V domains shown)
VH: QVQLVESGGGVVQPGRSLRLSCAASGFTFNNYGIHWVRQAPGKGLEWVAVISYDESNKYYADSVKGRFTISRDNSKNTLYLQMNSLRAEDTAVYYCAKDIRIAARRHYYYYGMDVWGQGTTVTVSS
VL: DIQMTQSPSSVSASVGDRVTITCRASQGISRWLAWYQQKPGKAPKLLIYAASSLESGVPARFSGSGSGTDFTLTISSLQPEDFATYYCQQANSFPITFGPGTKVDIK
B2: H4H15341P (antibody, human IgG4, V domains shown)
VH: EVQLVESGGGLVQPGGSLRLSCAASGFTFNNHEMNWVRQAPGKGLEWVSYISSSGNTVTYADFLKGRFTISRDNAKNSLFLQMNSLRDEDTAVYYCARDHLSGTSPLSYWGQGTLVTVSS
VL: DIQMTQSPSSLSASVGDRVTITCQASQDINNYLNWFQQKPGKAPKLLIFDASNLETGVPSRFSGSGSGTDFTFTISSLQPEDIATYFCQQYENLPYTFGQGTKLEIK

Assays:
[1] = target: monkey ANGPTL8 expressed with C-terminal mouse IgG2a Fc tag (cynomolgus monkey); experiment: BLI (Octet HTX), mFc protein captured on AMC sensor, 100 nM mAb, 25 C
[2] = target: T1, series of linear peptides which contain common sequence 150…159 (human); experiment: Pepscan ELISA, HiSense linear peptide array, 1 µg/ml antibody

Binder | binding [1] | binding [2]
B1 | binds | 
B2 |  | binds
